Source: PubChem BioAssay AID1053208 (Peter MacCallum Cancer Centre, 2014)
Shown is a random part of about 17,000 deposited reagents. 788 of them (4.7%) count as active. 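Calls rest on z-score classes alone; an extra cut-off of viability at most 70% of control was not applied to them.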 Not all columns of the deposit are shown.

Purpose: 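Synthetic lethal interactions between gene loss and doxorubicin in osteosarcoma cells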 (primary screen)
Cells: mouse osteosarcoma cells, early-passage culture from an engineered mouse model of fibroblastic bone tumour
Reagent: siRNA pool against mouse genes, 40 nM
Duration: about 120 h (48 h before drug, then 72 h with drug)
Conditions: doxorubicin 100 nM for 72 h, roughly 30-40% inhibitory dose
Read-out: 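Luminescent ATP signal taken as viability with or without 100 nM doxorubicin for 72 h; mean of two wells set against non-targeting siRNA and turned into robust z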
Direction: viability z-score with doxorubicin: higher = more viable cells under doxorubicin; viability z-score without drug: higher = more viable cells with knock-down alone
Hit rule: 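Called active if knock-down leaves viability unchanged without drug (z within -2 to 2) but lowers it with doxorubicin (z at or under -2)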

Against Map3k9 the deposit lists combined z-score class no change with or without drug; viability z-score with doxorubicin 1.12; viability z-score without drug 0.84; inactive.
Sap130 gave combined z-score class no change with or without drug; viability z-score with doxorubicin -0.22; viability z-score without drug -0.84; inactive.
With knock-down of Hipk1 the results were combined z-score class no change with or without drug; viability z-score with doxorubicin 0.11; viability z-score without drug 1.18; inactive.
Glra4 gave combined z-score class no change with or without drug; viability z-score with doxorubicin 1.35; viability z-score without drug 1.85; inactive.
Spmip4 scored combined z-score class no change with or without drug; viability z-score with doxorubicin 0.22; viability z-score without drug -1.18; inactive.
Pdlim1 scored combined z-score class no change with or without drug; viability z-score with doxorubicin 0.9; viability z-score without drug 1.18; inactive.
For Pla2r1, the entry reads combined z-score class no change with or without drug; viability z-score with doxorubicin 0.45; viability z-score without drug 0.67; inactive.
With knock-down of Zfp566, the screen gave combined z-score class no change with or without drug; viability z-score with doxorubicin -0.34; viability z-score without drug 0.67; inactive.
For Daw1, the entry reads combined z-score class no change with or without drug; viability z-score with doxorubicin -0.45; viability z-score without drug 0; inactive.
After knock-down of Aimp2 the results were combined z-score class no change with or without drug; viability z-score with doxorubicin 0.45; viability z-score without drug 1.69; inactive.
Silencing of Aifm2 came out at: combined z-score class no change with or without drug; viability z-score with doxorubicin 1.35; viability z-score without drug -0.17; inactive.
For Rpl26 the deposit lists combined z-score class low cell count with and without drug; viability z-score with doxorubicin -4.38; viability z-score without drug -2.19; inactive.
Silencing of Rbbp7 resulted in: combined z-score class no change with or without drug; viability z-score with doxorubicin 1.01; viability z-score without drug 0.34; inactive.
Clnk showed combined z-score class no change with or without drug; viability z-score with doxorubicin -1.35; viability z-score without drug -0.17; inactive.
Knock-down of Or5p58 resulted in: combined z-score class no change with or without drug; viability z-score with doxorubicin -1.46; viability z-score without drug 0; inactive.
With knock-down of Cited2, the screen gave combined z-score class no change with or without drug; viability z-score with doxorubicin -1.46; viability z-score without drug -0.84; inactive.
With knock-down of Depdc1a, the screen gave combined z-score class no change with or without drug; viability z-score with doxorubicin 0.9; viability z-score without drug 0.17; inactive.
Cavin1 showed combined z-score class no change with or without drug; viability z-score with doxorubicin 0.67; viability z-score without drug 0.67; inactive.
Depletion of Med7 came out at: combined z-score class no change with or without drug; viability z-score with doxorubicin -1.24; viability z-score without drug 0.84; inactive.
Against Paqr6 the deposit lists combined z-score class no change with or without drug; viability z-score with doxorubicin -0.22; viability z-score without drug 0.84; inactive.
For Atp6v1c2, the entry reads combined z-score class no change with or without drug; viability z-score with doxorubicin -1.01; viability z-score without drug -0.17; inactive.
Il2rb showed combined z-score class no change with or without drug; viability z-score with doxorubicin -0.45; viability z-score without drug 0.17; inactive.
Or13p5 gave combined z-score class no change with or without drug; viability z-score with doxorubicin 0.79; viability z-score without drug 0.84; inactive.
Slc35a3 showed combined z-score class no change with or without drug; viability z-score with doxorubicin -1.8; viability z-score without drug -0.67; inactive.
Silencing of Rcbtb2 gave: combined z-score class no change with or without drug; viability z-score with doxorubicin -1.12; viability z-score without drug -0.67; inactive.
Depletion of Tsr1 resulted in: combined z-score class no change with or without drug; viability z-score with doxorubicin 0.22; viability z-score without drug 0.84; inactive.
Gm10283 scored combined z-score class no change with or without drug; viability z-score with doxorubicin -1.12; viability z-score without drug -0.67; inactive.
With knock-down of Cep83, the screen gave combined z-score class high without drug; low with doxorubicin; viability z-score with doxorubicin -2.59; viability z-score without drug 2.36; inactive.
With knock-down of Tma7, the record shows combined z-score class no change with or without drug; viability z-score with doxorubicin -0.34; viability z-score without drug -0.17; inactive.
Knock-down of Rab39a gave: combined z-score class no change with or without drug; viability z-score with doxorubicin 0.45; viability z-score without drug -0.17; inactive.
With knock-down of Ryr1 the results were combined z-score class no change with or without drug; viability z-score with doxorubicin -0.22; viability z-score without drug 0.51; inactive.
Or1ab2 gave combined z-score class no change with or without drug; viability z-score with doxorubicin 0; viability z-score without drug -0.17; inactive.
Extl2 gave combined z-score class no change with or without drug; viability z-score with doxorubicin 1.46; viability z-score without drug 0.67; inactive.
Against Qrich1 the deposit lists combined z-score class no change with or without drug; viability z-score with doxorubicin -0.22; viability z-score without drug 1.85; inactive.
Depletion of Prpf19 gave: combined z-score class low cell count with doxorubicin only; viability z-score with doxorubicin -2.25; viability z-score without drug -1.18; active.
Depletion of Cyb561a3 came out at: combined z-score class no change with or without drug; viability z-score with doxorubicin 0; viability z-score without drug -0.17; inactive.
